This passage reports binding results from article PMC11624264, “Phosphorylation of P-stalk proteins defines the ribosomal state for interaction with auxiliary protein factors” (EMBO Reports, 2024).

Results are given in words; binding and its absence hold for the method and conditions named. Some results given as binding are weak or reduced against the parent protein; the word gives no strength.

Assay in all cases: native MS; natively assembled complex released from 80S ribosomes by thrombin, purified to homogeneity by the 6xHis tag of ΔuL10 (Ni-NTA) and SEC (Superose 12), checked by SDS-PAGE, native PAGE and native MS of the intact complex in 200 mM ammonium acetate pH 7.5
The target of test [1] is T1, P2B, AP-treated (dephosphorylated) form (S. cerevisiae) (UniProt P02400).
T1 sequence: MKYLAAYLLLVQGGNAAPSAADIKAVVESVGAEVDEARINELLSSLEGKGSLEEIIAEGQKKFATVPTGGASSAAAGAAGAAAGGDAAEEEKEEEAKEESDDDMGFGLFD

In test [2] the target is T2, ΔuL10 (amino acids 199–312), AP-treated (dephosphorylated) form (S. cerevisiae) (UniProt P05317).
T2 sequence: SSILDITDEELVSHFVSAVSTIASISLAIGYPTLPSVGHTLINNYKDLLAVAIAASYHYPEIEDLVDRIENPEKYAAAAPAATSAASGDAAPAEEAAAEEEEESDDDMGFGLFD

Test [3] concerns the target T3, P2A, AP-treated (dephosphorylated) form (S. cerevisiae) (UniProt P05319).
T3 sequence: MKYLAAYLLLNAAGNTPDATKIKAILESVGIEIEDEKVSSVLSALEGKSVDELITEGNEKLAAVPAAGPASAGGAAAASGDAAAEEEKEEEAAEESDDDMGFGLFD

B1: P1A, AP-treated (dephosphorylated) form (protein, UniProt P05318 1-106)
chain: MSTESALSYAALILADSEIEISSEKLLTLTNAANVPVENIWADIFAKALDGQNLKDLLVNFSAGAAAPAGVAGGVAGGEAGEAEAEKEEEEAKEESDDDMGFGLFD
Consider B1, for which the binding entry in test [1] and in test [2] was “binds” in each case.

B2: P1B, AP-treated (dephosphorylated) form (protein, UniProt P10622 1-106)
chain: MSDSIISFAAFILADAGLEITSDNLLTITKAAGANVDNVWADVYAKALEGKDLKEILSGFHNAGPVAGAGAASGAAAAGGDAAAEEEKEEEAAEESDDDMGFGLFD
As to B2, the binding entry in test [3] and in test [2] was “binds” in each case.

B3: P2B, AP-treated (dephosphorylated) form (protein, UniProt P02400 1-110)
chain: MKYLAAYLLLVQGGNAAPSAADIKAVVESVGAEVDEARINELLSSLEGKGSLEEIIAEGQKKFATVPTGGASSAAAGAAGAAAGGDAAEEEKEEEAKEESDDDMGFGLFD
As for B3, in test [2], the binding entry was “binds”.

B4: P2A, AP-treated (dephosphorylated) form (protein, UniProt P05319 1-106)
chain: MKYLAAYLLLNAAGNTPDATKIKAILESVGIEIEDEKVSSVLSALEGKSVDELITEGNEKLAAVPAAGPASAGGAAAASGDAAAEEEKEEEAAEESDDDMGFGLFD
As for B4, the binding result in test [2] is “binds”.
